# PubChem BioAssay AID540256 (National Center for Advancing Translational Sciences (NCATS), 2011)
# Screen size: about 300,000 compounds; about 3,700 (1.2%) were called active. Inconclusive means that the source gave no clear call. Such entries were picked first, then a sample of the others. Calls follow the shape of the full dose curve; tested in HEK293 cells. Potencies of inconclusive entries are doubtful fits and often do not repeat.
# Test: qHTS for Inhibitors of binding or entry into cells for Lassa Virus; also: nearly all actives have a fitted effect of over 50% in size
# Details: Lassa virus pseudotype entry inhibition, cell reporter; series mostly up to 37.9 µM
# Potency is read from the fitted curve at half-maximal effect.
row,SMILES,Potency
1,Cc1noc(C)c1CSCC(=O)Oc1ccc(N(C)S(=O)(=O)c2ccccc2)cc1,inactive
2,O=C(NCCN1C(=O)S/C(=C\c2ccc(OC(F)F)cc2)C1=O)c1cnccn1,"inconclusive: 4.61 µM [inhibitor, full curve]"
3,Cc1ccc(CN(C(=O)C(F)(F)F)C(C(=O)NC2CCCCC2)c2ccco2)cc1 (stereo not given),"inconclusive: 18.3 µM [inhibitor, single point]"
4,O=C(/C=C/c1ccccc1)NCc1ccco1,"inconclusive: 22.4 µM [inhibitor, single point]"
5,CC(Nc1cc(N2CCN(C(=O)C(C)(C)C)CC2)ccc1[N+](=O)[O-])c1ccccc1 (stereo not given),active: 23.1 µM
6,O=C(N/N=C/c1ccc(O)cc1)c1cc(-c2ccc3c(c2)OCO3)n[nH]1,"inconclusive: 5.01 µM [inhibitor, partial curve, poor fit]"
7,COc1ccc(NC(=O)c2c(C)oc3ccc(O)c(CN4CCN(Cc5ccccc5)CC4)c23)cc1Cl,active: 7.94 µM
8,COc1ccc(C(CNC(=O)c2cccc(Br)c2)N2CCCC2)cc1 (stereo not given),"inconclusive: 14.6 µM [inhibitor, partial curve, poor fit]"
9,Cc1cccc2nc3ccccc3nc12,"inconclusive: 20 µM [activator, partial curve, poor fit]"
10,CCCCN(CCCC)CCNC(=O)CN1C(=O)CSc2ccc(S(=O)(=O)N3CCOCC3)cc21,"inconclusive: 12.6 µM [activator, single point]"
11,C/C(N)=C(/C#N)C(=O)CSc1nnc(NC(C)C)s1,"inconclusive: 29.1 µM [activator, single point]"
12,Cc1ccccc1OCCCCn1c(CO)nc2ccccc21,"inconclusive: 28.2 µM [inhibitor, partial curve, poor fit]"
13,Cc1cc(-c2ccccc2)[nH]c(=O)c1C#N,inactive
14,CC(C)c1ccc(N=Cc2c(O)n(C3CC3)c(=S)[nH]c2=O)cc1,inactive
15,COC(=O)c1ccccc1C(=O)c1cccc2ccccc12,"inconclusive: 11.2 µM [inhibitor, partial curve, poor fit]"
16,CC(=O)c1cccc(Nc2cc(C)nc3nc(Cc4ccccc4)nn23)c1,"inconclusive: 6.31 µM [activator, single point]"
17,O=C(Nc1nc(-c2ccc(Cl)cc2Cl)cs1)c1ccc(OCC2CCCO2)cc1 (stereo not given),"inconclusive: 35.5 µM [inhibitor, single point]"
18,O=C(O)c1cccc(COc2ccc3c(c2)CCC3)c1,active: 0.366 µM
19,COC(=O)c1cc(Sc2c(Cl)cccc2Cl)ccn1,inactive
20,Cc1ccc(Nc2nc3ccccc3c3nnc(C)n23)c(C)c1,"inconclusive: 20 µM [activator, single point]"
21,CC1=C/C(=N\OS(=O)(=O)c2ccccc2)C(C(C)C)=CC1=O,"inconclusive: 29.1 µM [inhibitor, single point]"
22,CCOc1cc(/C=N/O)cc(Br)c1OCc1ccc(Cl)cc1,"inconclusive: 22.4 µM [inhibitor, single point]"
23,Cc1cccc(NC2=NC(C)(C)N=C(N)N2)c1C,"inconclusive: 14.6 µM [activator, partial curve, poor fit]"

# Reprinted at random: three entries already listed.
row,SMILES,Potency
6,O=C(N/N=C/c1ccc(O)cc1)c1cc(-c2ccc3c(c2)OCO3)n[nH]1,"inconclusive: 5.01 µM [inhibitor, partial curve, poor fit]"
22,CCOc1cc(/C=N/O)cc(Br)c1OCc1ccc(Cl)cc1,"inconclusive: 22.4 µM [inhibitor, single point]"
1,Cc1noc(C)c1CSCC(=O)Oc1ccc(N(C)S(=O)(=O)c2ccccc2)cc1,inactive

# Additional structures:

row,SMILES,Potency
1,CCCc1cc(=O)[nH]c(Nc2ccc(N3CCCCC3)cc2)n1,"inconclusive: 20.6 µM [inhibitor, partial curve]"
2,CCCCC#Cc1nc(NC)c2ncn([C@@H]3O[C@H](CO)[C@@H](O)[C@H]3O)c2n1,"inconclusive: 32.6 µM [inhibitor, partial curve, poor fit]"
3,Cc1ccc(N2CCN(C(=O)c3cnn(-c4ccc(F)cc4F)c3C3CCN(C(=O)OC(C)(C)C)CC3)CC2)c(C)c1,"inconclusive: 6.31 µM [inhibitor, partial curve, poor fit]"
4,CN(C)S(=O)(=O)c1ccc(C(=O)NCc2cccs2)cc1,"inconclusive: 29.1 µM [inhibitor, single point]"
5,O=[N+]([O-])c1ccc(Cl)c(CN2CCSCC2)c1,"inconclusive: 23.1 µM [inhibitor, partial curve, poor fit]"
6,COc1ccc(-n2cc(C#N)c(=O)n(Cc3ccc(F)cc3)c2=O)cc1,"inconclusive: 0.562 µM [inhibitor, full curve, poor fit]"
7,Nc1ccc(N=Nc2ccccc2)c(N)n1,"inconclusive: 6.51 µM [activator, partial curve, poor fit]"
8,COc1cc(OC)c(N(C)C(=O)c2cn(C3CCCC3)c(=O)c3c2c2ccccc2n3C)cc1Cl,"inconclusive: 12.6 µM [inhibitor, single point]"
9,Cc1ccccc1C(=O)OCc1cc(=O)n2nc(C(C)C)sc2n1,"inconclusive: 14.1 µM [inhibitor, single point]"
10,COc1ccc(C(=O)Nc2cccc(S(=O)(=O)N3CCCC3)c2)cc1S(=O)(=O)N1CCOCC1,inactive
11,COc1ccc(-c2nc(-c3ccc(Br)cc3)no2)c(OC)c1,inactive
12,Cc1ccc(-n2c(SCC(=O)c3c(N)n(C4CC4)c(=O)[nH]c3=O)nnc2N2CCOCC2)cc1,inactive
13,O=c1[nH]c(CN2CCN(c3ccccc3Cl)CC2)nc2ccsc12,inactive
14,Cc1ccccc1NC(=O)Cc1nc(COC(=O)c2ccc(Cl)c(S(N)(=O)=O)c2)cs1,"inconclusive: 0.631 µM [activator, single point]"
15,CC(C)NC(=O)c1ccc(S(=O)(=O)N(C)C)cc1,inactive
16,CC(C)(CCl)C(=O)Nc1ccc(C(F)(F)F)cc1,inactive
17,COc1ccc2cc(-c3nnc(Nc4ccccc4)s3)c(=O)oc2c1,inactive
18,COc1ccc(S(=O)(=O)N2CCC(NC(=O)c3cccnc3)CC2)cc1,inactive
19,COCCNC(=O)/C(C#N)=C1\N=C(N)c2ccccc21,"inconclusive: 1.26 µM [inhibitor, single point]"
20,O=C(Nc1cccc(C(F)(F)F)c1)N1CC2CCCN2c2ccccc21 (stereo not given),inactive
21,O=C(c1cc(COc2ccc(F)cc2Cl)on1)N1CC[C@@H]2CCCC[C@H]2C1,inactive
22,CCc1ccc(Nc2nnc(SCC(=O)Nc3cccc(S(=O)(=O)NC4=NCCCCC4)c3)s2)cc1,"inconclusive: 18.4 µM [inhibitor, partial curve, poor fit]"
